Seven molecules from US20090252681A1 (Ablynx, published 2009) can be followed below.

Assay [1] deals with T1, purified EGFR (Sigma) (human, UniProt P00533 25-1210, limits assumed).
T1 construct: native receptor purified from A431 cells; also called solid phase coated EGFR

Assay [2] has as its target purified EGFR (Sigma) (human) (UniProt P00533).
The target of assay [3] is T1, purified EGFR (Sigma). This is another data set of the same source.

Read-outs that look alike come from different tables or passages of the source. Results are given in words; binding and its absence hold for the method and conditions named. A result given as binding can be weak or reduced; the word gives no strength.

B1: PMP9C1 (VHH)
VHH: EVQLVESGGGLVQAGGSLRLSCAASGRTFSGFAMGWFRQAPGKEREFVAAISWSGGSLLYVDSVKGRFTISRDNAKNTVHLQMNSLKPGDTAVYYCAAMVGPPPRSLDYGLGNHYEYDYWGQGTQVTVSS
For the molecule B1, the binding entry in assay [1] is given as “binds”.

B2: PMP9A7 (VHH)
VHH: EVQLVESGGGLVQAGGSLRLSCAVSGRTFSGDVMGWFRQAPGKEREFVAGFSRSTSTTHYADSVKGRFTISGDNAKNTVYLQMNSLKPEDTAVYYCAANSRSSWVIFTIKGQYDRWGQGTQVTVSS
Consider B2, for which, in assay [1], the binding result was “binds”.

B3: PMP11H6 (VHH)
VHH: AVQLVESGGGLVQAGGSLRLSCAASGRTFSTYTMAWFRQAPGKEREFVQGISRSDGGTYDADSVKGRFTISRDNAKNTVYLQMNSLKPEDTAVYFCAAANEYWVYVNPNRYTYWGRGTQVTVSS
Turning to B3, the binding entry in assay [2] was “binds”.

B4: 27-1-H7 (VHH)
VHH: EVQLVESGGGLVQAGGSLRLSCAASGRGAWAWFRQAPGKEREFVGGLSWSADSTYYADSVKGRFTISRDNAKNTVFLQMTNLKADDTAVYYCAAHRRPFASVFTTTRMYDYWGPGTQVTVSS
Take B4: the binding entry in assay [1] is “binds”.

B5: PMP11C9 (VHH)
VHH: EVQLVESGGGLVQAGASLRLSCAASGRYFSDYNMAWFRQAPGKEREFVAHISWLGGRTYYRDSVKGRFTISRDNAKDTVYLQMNSLKPEDTAVYSCAAGSPYGTELPYTRIEQYAYWGQGTQVTVSS
For B5, the binding entry in assay [1] is reported as “binds”.

B6: PMP8B5 (VHH)
VHH: EVQLVESGGGLVQAGGSLRVSCVASIRSFSSYVVGWFRQAPGKDREFVAGIAWGDGITYYADSVKGRFTISRDHAKNTAYLQMNSLRPEDTAVYYCAVRPGMIITTIQATYGFWGQGTQVTVSS
As to B6, the binding entry in assay [1] is “binds”.

B7: PMP7E12 (VHH)
VHH: EVQLVESGGGLVQAGGSLRLSCTASGRTFENNAMAWFRQAAGKEREFVAGFSGSGGATYYAHSVEGRFTISRDNAKNTVDLQMNSLSLEDTAVYLCAARRKSGEVVFTIPARYDYWGQGTQVTVSS
As to B7, the binding result in assay [1] and in assay [3] was “binds” each time.
